Laboratory results reported in article PMC12050090.
Results are given in words; binding and its absence hold for the method and conditions named. Binding seen in cells or lysates may run through a third protein. Some entries that bind do so weakly or less than the wild type.

By UniProt entry, the sequences of proteins in these tests, tags left out.
UniProt P23258: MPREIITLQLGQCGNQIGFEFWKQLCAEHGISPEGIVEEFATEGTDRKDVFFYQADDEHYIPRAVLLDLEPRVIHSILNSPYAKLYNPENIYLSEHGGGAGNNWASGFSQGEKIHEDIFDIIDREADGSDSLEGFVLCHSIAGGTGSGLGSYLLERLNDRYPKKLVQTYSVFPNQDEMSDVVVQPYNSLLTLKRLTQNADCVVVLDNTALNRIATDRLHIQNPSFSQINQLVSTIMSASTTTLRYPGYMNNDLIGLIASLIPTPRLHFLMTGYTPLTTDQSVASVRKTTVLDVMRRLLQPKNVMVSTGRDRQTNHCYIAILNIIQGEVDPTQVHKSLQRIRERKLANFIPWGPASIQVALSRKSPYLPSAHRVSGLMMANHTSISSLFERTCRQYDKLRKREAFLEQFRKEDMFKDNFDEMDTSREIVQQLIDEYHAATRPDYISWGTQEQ
UniProt P13010: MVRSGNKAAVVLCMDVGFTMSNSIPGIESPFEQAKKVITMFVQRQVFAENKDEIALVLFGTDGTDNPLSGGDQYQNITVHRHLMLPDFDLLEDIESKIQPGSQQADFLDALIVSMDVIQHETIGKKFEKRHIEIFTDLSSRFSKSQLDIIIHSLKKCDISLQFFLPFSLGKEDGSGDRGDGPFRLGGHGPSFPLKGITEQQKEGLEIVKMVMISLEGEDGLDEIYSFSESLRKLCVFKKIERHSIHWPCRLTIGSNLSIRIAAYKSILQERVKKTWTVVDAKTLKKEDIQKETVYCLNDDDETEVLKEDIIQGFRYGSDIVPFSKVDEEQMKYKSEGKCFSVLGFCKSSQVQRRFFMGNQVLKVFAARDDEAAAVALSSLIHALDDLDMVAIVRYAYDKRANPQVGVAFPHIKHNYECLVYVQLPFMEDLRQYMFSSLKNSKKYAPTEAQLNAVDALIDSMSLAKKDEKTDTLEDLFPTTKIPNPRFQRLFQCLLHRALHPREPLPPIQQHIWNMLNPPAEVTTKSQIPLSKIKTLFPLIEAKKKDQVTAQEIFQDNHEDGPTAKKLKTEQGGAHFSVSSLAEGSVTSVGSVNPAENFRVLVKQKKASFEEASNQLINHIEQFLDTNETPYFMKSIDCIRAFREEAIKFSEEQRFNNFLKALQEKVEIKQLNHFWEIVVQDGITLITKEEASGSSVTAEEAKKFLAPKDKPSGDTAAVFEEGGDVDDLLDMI
UniProt Q06609: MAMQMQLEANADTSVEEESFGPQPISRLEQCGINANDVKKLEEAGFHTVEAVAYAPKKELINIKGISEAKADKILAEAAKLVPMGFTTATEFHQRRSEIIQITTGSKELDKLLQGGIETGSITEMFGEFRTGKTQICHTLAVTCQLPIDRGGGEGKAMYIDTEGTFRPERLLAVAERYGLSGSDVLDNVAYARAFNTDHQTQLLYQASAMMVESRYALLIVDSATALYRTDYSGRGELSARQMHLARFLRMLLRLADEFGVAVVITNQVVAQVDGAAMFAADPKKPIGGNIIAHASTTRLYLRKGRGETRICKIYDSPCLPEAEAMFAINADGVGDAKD
UniProt P27694: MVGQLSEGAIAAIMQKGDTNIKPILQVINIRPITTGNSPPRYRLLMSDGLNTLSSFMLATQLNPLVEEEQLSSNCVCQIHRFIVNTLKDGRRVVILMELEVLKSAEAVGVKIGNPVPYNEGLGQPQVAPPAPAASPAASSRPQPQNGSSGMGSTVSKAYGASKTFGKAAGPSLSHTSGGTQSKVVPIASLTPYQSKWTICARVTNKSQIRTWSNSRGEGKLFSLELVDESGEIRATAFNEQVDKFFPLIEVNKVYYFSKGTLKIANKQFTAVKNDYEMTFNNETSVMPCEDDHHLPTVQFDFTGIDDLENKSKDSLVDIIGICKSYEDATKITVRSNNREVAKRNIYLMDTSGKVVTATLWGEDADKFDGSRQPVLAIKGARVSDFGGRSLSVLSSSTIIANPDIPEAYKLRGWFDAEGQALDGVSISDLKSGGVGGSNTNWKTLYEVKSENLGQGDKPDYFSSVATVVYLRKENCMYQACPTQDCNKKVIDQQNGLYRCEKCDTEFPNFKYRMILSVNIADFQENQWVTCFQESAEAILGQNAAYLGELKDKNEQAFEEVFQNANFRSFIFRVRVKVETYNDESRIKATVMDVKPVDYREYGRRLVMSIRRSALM
UniProt P09874: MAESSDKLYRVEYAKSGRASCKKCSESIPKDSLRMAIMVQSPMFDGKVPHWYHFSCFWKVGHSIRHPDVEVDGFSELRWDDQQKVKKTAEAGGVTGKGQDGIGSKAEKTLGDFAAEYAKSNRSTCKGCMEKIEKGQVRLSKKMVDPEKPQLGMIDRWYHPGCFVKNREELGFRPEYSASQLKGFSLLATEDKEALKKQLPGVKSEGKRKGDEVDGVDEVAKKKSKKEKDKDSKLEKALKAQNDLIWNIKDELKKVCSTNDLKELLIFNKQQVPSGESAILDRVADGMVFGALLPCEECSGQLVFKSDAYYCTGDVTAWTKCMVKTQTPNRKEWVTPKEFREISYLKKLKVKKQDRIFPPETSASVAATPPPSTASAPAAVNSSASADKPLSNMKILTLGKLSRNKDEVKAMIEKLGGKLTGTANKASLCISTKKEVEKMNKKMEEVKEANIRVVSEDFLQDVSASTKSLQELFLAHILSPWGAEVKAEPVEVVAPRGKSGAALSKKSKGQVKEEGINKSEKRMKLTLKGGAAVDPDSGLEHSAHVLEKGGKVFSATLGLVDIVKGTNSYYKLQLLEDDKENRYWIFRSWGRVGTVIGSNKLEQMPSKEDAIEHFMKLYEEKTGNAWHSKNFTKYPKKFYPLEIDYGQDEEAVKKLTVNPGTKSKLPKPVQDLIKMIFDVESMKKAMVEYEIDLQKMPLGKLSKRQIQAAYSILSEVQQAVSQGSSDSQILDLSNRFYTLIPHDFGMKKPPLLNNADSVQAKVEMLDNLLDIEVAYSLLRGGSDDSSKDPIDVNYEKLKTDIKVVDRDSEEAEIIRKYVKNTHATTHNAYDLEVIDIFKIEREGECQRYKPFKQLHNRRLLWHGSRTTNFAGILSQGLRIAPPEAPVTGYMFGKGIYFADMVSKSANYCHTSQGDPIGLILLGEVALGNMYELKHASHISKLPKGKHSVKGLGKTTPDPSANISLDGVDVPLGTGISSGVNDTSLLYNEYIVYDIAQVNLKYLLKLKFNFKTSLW
UniProt P15927: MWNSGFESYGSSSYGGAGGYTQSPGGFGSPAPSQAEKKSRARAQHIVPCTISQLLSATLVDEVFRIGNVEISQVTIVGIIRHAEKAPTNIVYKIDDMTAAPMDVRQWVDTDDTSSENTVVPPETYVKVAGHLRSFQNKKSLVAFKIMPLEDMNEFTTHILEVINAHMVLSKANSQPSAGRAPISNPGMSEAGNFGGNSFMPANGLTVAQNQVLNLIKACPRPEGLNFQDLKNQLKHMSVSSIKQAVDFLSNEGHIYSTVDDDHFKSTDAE
UniProt Q96SD1: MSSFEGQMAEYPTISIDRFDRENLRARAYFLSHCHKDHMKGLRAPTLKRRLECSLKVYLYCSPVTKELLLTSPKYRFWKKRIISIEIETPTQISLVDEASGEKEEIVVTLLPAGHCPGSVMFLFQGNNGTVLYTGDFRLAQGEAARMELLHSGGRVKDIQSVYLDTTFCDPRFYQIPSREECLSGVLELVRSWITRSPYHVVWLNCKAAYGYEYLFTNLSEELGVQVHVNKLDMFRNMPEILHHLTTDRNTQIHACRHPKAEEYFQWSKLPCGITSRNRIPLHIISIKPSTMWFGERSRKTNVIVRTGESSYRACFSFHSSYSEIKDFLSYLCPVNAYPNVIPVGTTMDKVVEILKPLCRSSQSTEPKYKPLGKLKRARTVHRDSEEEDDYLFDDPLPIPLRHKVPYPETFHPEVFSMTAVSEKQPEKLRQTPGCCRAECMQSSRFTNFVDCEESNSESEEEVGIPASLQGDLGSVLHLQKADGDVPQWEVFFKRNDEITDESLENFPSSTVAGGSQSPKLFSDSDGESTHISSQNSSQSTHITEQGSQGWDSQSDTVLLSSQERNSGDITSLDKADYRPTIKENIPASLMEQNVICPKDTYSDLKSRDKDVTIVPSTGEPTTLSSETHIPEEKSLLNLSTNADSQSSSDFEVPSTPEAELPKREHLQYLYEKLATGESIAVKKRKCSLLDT

Experiments:
[1] = target: γ-tubulin (human (endogenous in HeLa)) (UniProt P23258); experiment: co-IP; anti-γ-tubulin antibody on magnetic beads incubated with HeLa cell lysates, cells with or without etoposide; washed three times with PBS; control with blank beads; immunoblotting
[2] = target: Ku80 (human (endogenous in HeLa)) (UniProt P13010); experiment: co-IP; anti-Ku80 antibody on magnetic beads incubated with lysates of HeLa cells treated with bleomycin; washed three times with PBS; control with blank beads; immunoblotting

Substance	binding [1]	binding [2]
RAD51 (from UniProt Q06609 1-339)	binds	–
RPA70 (from UniProt P27694 1-616)	binds	–
poly-ADP-ribose polymerase 1 (from UniProt P09874 1-1014)	binds	–

The next lines start with the values.

binding [1]	binding [2]	Substance
binds	–	Ku80 (from UniProt P13010 1-732)
binds	–	RPA32 (from UniProt P15927 1-270)
binds	–	artemis (from UniProt Q96SD1 1-692)
–	binds	γ-tubulin (from UniProt P23258 1-451)
